From publication doi:10.1101/2023.09.15.556569
These are yes or no findings as the source states them, for the method shown. Binding seen in cells or lysates may run through a third protein. Some binding calls cover weakened binding; strength is not graded here.

Protein sequences, listed by entry. Tags and fused reporters are not part of them. Lines headed by an entry give the natural chain unless they say otherwise; changes in a name come on top.
UniProt O55193: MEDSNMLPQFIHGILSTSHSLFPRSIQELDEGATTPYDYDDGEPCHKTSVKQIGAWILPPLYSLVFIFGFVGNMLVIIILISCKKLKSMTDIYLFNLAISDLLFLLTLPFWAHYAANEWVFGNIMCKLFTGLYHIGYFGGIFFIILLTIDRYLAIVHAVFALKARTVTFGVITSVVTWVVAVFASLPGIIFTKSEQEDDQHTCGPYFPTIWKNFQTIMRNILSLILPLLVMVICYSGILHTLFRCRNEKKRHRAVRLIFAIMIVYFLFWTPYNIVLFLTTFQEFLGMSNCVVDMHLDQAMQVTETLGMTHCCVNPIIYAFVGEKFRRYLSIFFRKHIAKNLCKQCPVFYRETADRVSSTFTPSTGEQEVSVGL
UniProt P32121: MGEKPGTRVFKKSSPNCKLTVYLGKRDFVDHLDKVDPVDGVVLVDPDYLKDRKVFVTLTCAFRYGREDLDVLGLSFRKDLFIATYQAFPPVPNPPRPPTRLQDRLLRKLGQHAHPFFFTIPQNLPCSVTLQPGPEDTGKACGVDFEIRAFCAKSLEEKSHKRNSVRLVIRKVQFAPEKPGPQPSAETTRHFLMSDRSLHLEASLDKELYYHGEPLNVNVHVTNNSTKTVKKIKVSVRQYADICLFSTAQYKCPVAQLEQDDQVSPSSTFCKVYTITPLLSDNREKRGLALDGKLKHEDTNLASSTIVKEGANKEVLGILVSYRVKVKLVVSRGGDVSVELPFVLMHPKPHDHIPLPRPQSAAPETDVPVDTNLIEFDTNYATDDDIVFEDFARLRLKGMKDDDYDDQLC

Molecular target: rat CCR2 receptor fused to GFP10 (rCCR2-GFP10) (rat) (UniProt O55193)
Test: FRET or BRET

β-arrestin-2-RlucII (R393A) (from UniProt P32121 1-409)
binding: binds
